The text below walks through data of PubChem BioAssay AID2685 (National Center for Advancing Translational Sciences (NCATS), 2010).

This is one part of the list. These are further read-outs of the screen, such as a control signal, another cell line or another target. No call is given for them. Compounds called inactive in the main read-out are mostly missing here. Potencies come from curve fits of mixed quality, noted in brackets.

Usually AC50 stands for the concentration at which the activity in the assay is half-maximal.

A short description of this assay: qHTS Assay for Lipid Storage Modulators in Drosophila S3 Cells.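 For cell number change: cells counted by Cell Tracker Red CMTPX staining in the red channel.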 Particulars: BODIPY lipid droplet fluorescence, 18-24 h; for cell number change: measured here: cell count max response, cells fed with added oleic acid. Summed up:
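Drosophila S3 cells loaded with oleic acid (400 uM, as added) and compounds at several concentrations; lipid droplets imaged by 488-nm laser-scanning cytometry, 500–530 nm intensity and object ratio to cell channel. Percent activity normalized to 20 uM Triacsin C.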

Where [1] appears, read: measured here: lipid fluorescence (Fed channel) AC50, cells fed with added oleic acid.
Setting [2] is: measured here: cell number channel AC50, cells fed with added oleic acid.

As for `COc1ccc(NC(=O)CSCC(=O)OCc2cccc(OC)c2OC)cc1`, the half-maximal activity concentration (AC50) under setting [1] is 1.64 µM [rising, partial curve, poor fit].
As for `CCOC(=O)C1=C(CSc2nc3c(cc2C#N)CN(C)CC3)OC(N)=C(C#N)C1c1ccc(F)cc1` (configuration not stated), the cell number change is -0.161%.
With `CC1=NN(c2ccccc2C(=O)O)C(=O)C1N=Nc1ccccc1` (configuration not stated), the cell number change was -7.25%. In addition, the AC50 under setting [1] was 32.6 µM [falling, single point].
With `O=C(Nc1nc(-c2ccc(Cl)cc2Cl)cs1)c1ccc(OCC2CCCO2)cc1` (configuration not stated), the cell number change is -5.41%. Also, the AC50 under setting [1] is 0.164 µM [rising, full curve, poor fit].
For the compound `O=C(NCc1ccccc1)c1ccc2c(=O)[nH]c3c(C(=O)NCC4CCCO4)sc(=S)n3c2c1` (configuration not stated), the cell number change stood at 22.4%. Moreover, the AC50 under setting [2] is 2.31 µM [rising, full curve, poor fit]. The AC50 under setting [1] was 3.26 µM [rising, single point].
For `COc1ccc(C2(O)CC3CCC(C2)N3c2nc(C)cc(C)c2C#N)cc1` (configuration not stated), under setting [1], the concentration at half-maximal activity (AC50) is 0.58 µM [falling, single point].
For `COc1ccc(CCNC(=O)c2ccc(=O)[nH]n2)cc1OC`, the cell number change was 5.37%.
In the case of `Cc1c(NC(=O)Nc2cccc([N+](=O)[O-])c2)c(=O)n(-c2ccccc2)n1C`, the cell number change came to 1.45%. Besides, the AC50 under setting [1] was 29.1 µM [rising, single point].
On to `Cc1cccc2nc3ccccc3nc12`, for which the cell number change is -3.52%. Under setting [1], the AC50 is 20.6 µM [rising, single point].
For the compound `CCCCN(CCCC)CCNC(=O)CN1C(=O)CSc2ccc(S(=O)(=O)N3CCOCC3)cc21`, the cell number change is -16.5%. Also, the AC50 under setting [1] was 0.00461 µM [falling, full curve, poor fit].
Consider `CN(Cc1ccccc1)C(=O)CC(=O)N(C)Cc1ccccc1`, for which the cell number change is 9.4%. The half-maximal activity concentration (AC50) under setting [1] is 4.61 µM [falling, full curve, poor fit].
Consider `CCn1c(C(=O)N2CCc3ccccc3C2)cc2sccc21`, for which the cell number change amounted to 42%. Besides, under setting [2], the AC50 is 11.6 µM [rising, partial curve, poor fit].
With `C/C(N)=C(/C#N)C(=O)CSc1nnc(NC(C)C)s1`, the cell number change was 19.9%. Further, under setting [1], the AC50 was 8.2 µM [rising, partial curve].
With `Cc1ccccc1OCCCCn1c(CO)nc2ccccc21`, the cell number change was -33.3%. In addition, the AC50 under setting [2] is 23.1 µM [falling, single point]. The AC50 under setting [1] is 29.1 µM [falling, single point].
Take `Cc1cc(-c2ccccc2)[nH]c(=O)c1C#N`: the cell number change was -28%.
`Cc1cccc(NC(=O)CN2CCN(CC(=O)NCC3(N4CCCCC4)CCCCC3)CC2)c1C`: the cell number change was -7.23%.
As to `Cc1oc2cc(OCc3cnn(-c4ccccc4)c3)ccc2c(=O)c1Oc1ccccc1F`, the cell number change worked out at 11.7%. The half-maximal activity concentration (AC50) under setting [1] was 1.03 µM [rising, single point].
In the case of `COC(=O)c1ccccc1C(=O)c1cccc2ccccc12`, the cell number change was -39.5%. Moreover, the AC50 under setting [2] was 14.6 µM [falling, single point].
Take `CC(=O)Nc1ccc(C2=NN(c3ccccc3)C(c3ccccc3)C2)cc1` (configuration not stated): the cell number change was -18.8%. Moreover, the AC50 under setting [1] was 7.31 µM [falling, partial curve, poor fit].
Take `CC1=C(C(=O)Nc2cc(C)ccc2C)C(c2cccs2)NC(=S)N1` (configuration not stated): the cell number change is -10.4%. Also, the AC50 under setting [1] is 6.51 µM [rising, single point].
Turning to `COc1ccc(-c2c[n+]3c4n2CCCCC4=C(c2ccccc2)C3)cc1`, the cell number change is -36.2%. Also, under setting [2], the AC50 was 25.9 µM [falling, single point]. Besides, the AC50 under setting [1] is 18.4 µM [falling, single point].
For the compound `CCn1c(SCC(N)=O)nc2cc(S(=O)(=O)N3CCOCC3)ccc21`, the AC50 under setting [1] is 0.00411 µM [rising, partial curve, poor fit].
Regarding `CC[C@@H](C)[C@H](CNC)NC[C@@H](Cc1cccc2ccccc12)NCCc1cccc(C(F)(F)F)c1`, the cell number change is -18.9%. Under setting [1], the AC50 is 29.1 µM [falling, single point].
On to `O=C(CSc1nncc(=O)[nH]1)NCc1ccccc1`, for which the cell number change was 5.93%. The AC50 under setting [1] was 1.3 µM [rising, full curve, poor fit].
`Cc1noc(C)c1CSCC(=O)Oc1ccc(N(C)S(=O)(=O)c2ccccc2)cc1`: the cell number change was -0.226%. Also, the AC50 under setting [1] is 0.00517 µM [falling, full curve, poor fit].
As for `CCc1ccc(NC(=O)CN2CCc3ccccc3C2)cc1`, the cell number change amounted to 8.38%. In addition, the AC50 under setting [2] was 7.31 µM [rising, single point]. Moreover, the half-maximal activity concentration (AC50) under setting [1] was 0.58 µM [falling, single point].
With `O=C(NCCN1C(=O)S/C(=C\c2ccc(OC(F)F)cc2)C1=O)c1cnccn1`, the cell number change amounted to 9.73%. Besides, the AC50 under setting [1] is 23.1 µM [rising, partial curve].
Regarding `Cc1ccc(CN(C(=O)C(F)(F)F)C(C(=O)NC2CCCCC2)c2ccco2)cc1` (configuration not stated), the cell number change is -18.5%. Further, under setting [1], the AC50 was 18.4 µM [falling, single point].
Turning to `O=C(/C=C/c1ccccc1)NCc1ccco1`, the cell number change was -6.26%. Besides, the concentration at half-maximal activity (AC50) under setting [1] was 4.11 µM [falling, partial curve, poor fit].
For the compound `CC(Nc1cc(N2CCN(C(=O)C(C)(C)C)CC2)ccc1[N+](=O)[O-])c1ccccc1` (configuration not stated), the cell number change came out at 68.2%.
Consider `Cc1ccc(/C=C\c2nccc3c2[nH]c2ccccc23)cc1`, for which the cell number change was 2.02%. For the same compound, the AC50 under setting [2] was 0.146 µM [falling, full curve, poor fit]. In addition, the AC50 under setting [1] was 0.146 µM [falling, full curve, poor fit].
As to `Cc1ccc(CC(=O)NCc2ccc(Cl)cc2)cc1`, the cell number change was -20.9%. Also, the AC50 under setting [1] is 1.3 µM [falling, partial curve, poor fit].
Regarding `CC1(C)CC(=O)c2cc(NC(=O)c3ccc(F)cc3)c(=O)oc2C1`, the cell number change was 20%. Also, under setting [1], the AC50 was 29.1 µM [rising, single point].
For the compound `COc1ccc(-c2cc(C)no2)cc1S(=O)(=O)N(C)c1cccc(C)c1`, the cell number change is -21.6%. Also, the AC50 under setting [1] is 20.6 µM [falling, single point].
In the case of `CCOC(=O)COn1c(-c2cccc(Cl)c2)nc2ccc([N+](=O)[O-])cc21`, the cell number change amounted to 25.2%. Besides, the AC50 under setting [1] is 18.4 µM [rising, single point].
With `O=C(NCc1cn2ccccc2n1)c1ccc2c(c1)OCO2`, the cell number change amounted to 56.5%. Besides, under setting [2], the AC50 is 11.6 µM [rising, partial curve]. Under setting [1], the concentration at half-maximal activity (AC50) is 18.4 µM [rising, partial curve].
For the compound `Cn1c2ccccc2c(=O)c2ccc(F)cc21`, the cell number change worked out at 24.9%. For the same compound, the AC50 under setting [1] is 0.92 µM [falling, full curve, poor fit].
Consider `c1ccc(CCn2c(SCc3ccccc3)nnc2-c2ccncc2)cc1`, for which the cell number change amounted to 1.48%. Besides, under setting [2], the half-maximal activity concentration (AC50) is 0.103 µM [rising, full curve, poor fit]. Further, under setting [1], the AC50 is 0.103 µM [rising, full curve, poor fit].
Consider `Cc1ccc(-c2n[nH]c(=O)c3ccccc23)cc1S(=O)(=O)NC(C)(C)C`, for which the cell number change was -15.6%. Further, the AC50 under setting [1] is 20.6 µM [falling, single point].
For `CC12CCC(C(=O)N(CCC#N)CCC#N)(CC1=O)C2(C)C` (configuration not stated), the cell number change came to 1.76%. The AC50 under setting [1] is 23.1 µM [falling, single point].
Regarding `COc1ccc(S(=O)(=O)NCC2CCCN(Cc3ccc(OC)cc3F)C2)cc1` (configuration not stated), the cell number change was -13.9%. Besides, the AC50 under setting [1] was 6.51 µM [rising, single point].
In the case of `O=C(COc1ccc2ccc(=O)oc2c1)Nc1ccc2c(c1)OCCO2`, the cell number change was 16%. Also, the AC50 under setting [2] was 0.0058 µM [rising, full curve, poor fit].
On to `CC(OC(=O)CNC(=O)COc1ccccc1)C(=O)N(C)Cc1ccccc1` (configuration not stated), for which the cell number change is -24.1%. Moreover, the AC50 under setting [2] is 0.0058 µM [falling, full curve, poor fit].
Turning to `O=C(CCNC(=O)C1CCN(S(=O)(=O)c2ccc(F)cc2)CC1)Nc1nccs1`, the cell number change stood at 17.2%.
On to `CCC1SC2=NC(C)=C(C(=O)OCC(C)C)C(/C=C/c3ccccc3OC)N2C1=O` (configuration not stated), for which the cell number change is -8.33%. Moreover, under setting [1], the AC50 was 16.4 µM [falling, single point].
As to `Cn1c(=O)c2c(ncn2CC(O)CNc2cccc(Cl)c2)n(C)c1=O` (configuration not stated), the cell number change was -2.24%. Moreover, the half-maximal activity concentration (AC50) under setting [1] is 11.6 µM [falling, partial curve].
As to `C=CCNC(=S)N1CCN(c2ncc(C(F)(F)F)cc2Cl)CC1`, the cell number change was -49.5%.
Turning to `COc1cc(NC(=O)C2CCN(c3cnccn3)CC2)cc(OC)c1OC`, the cell number change was -12.7%. Besides, the concentration at half-maximal activity (AC50) under setting [1] was 18.4 µM [rising, partial curve].
On to `CC(C)CCNC(=O)CCCOc1ccccc1`, for which the cell number change amounted to 0.931%. Further, the AC50 under setting [1] is 0.00461 µM [falling, full curve, poor fit].
For `COc1ccc2ccccc2c1CNCc1ccccn1`, the cell number change is -4.45%. Further, the AC50 under setting [2] is 0.517 µM [falling, single point].
With `O=C(CCCOc1ccc(Cl)cc1)NCC1CCCO1` (configuration not stated), the cell number change is -44.1%. Also, the AC50 under setting [2] was 8.2 µM [falling, partial curve].
Regarding `CCc1nnc(SCC(=O)Nc2ccc(N3CCOCC3)cc2)o1`, the cell number change is -10.1%. In addition, the AC50 under setting [1] was 10.3 µM [falling, partial curve].
With `O=C(O)c1ccc(CSCc2ccccc2F)o1`, the cell number change is -78.8%. Further, under setting [2], the AC50 was 29.1 µM [falling, single point].
As to `CCn1c(SCC(=O)Nc2cc(C)on2)nnc1-c1ccc(S(=O)(=O)N2CCCC2)cc1`, the cell number change is 10.3%. Moreover, the AC50 under setting [2] was 0.231 µM [falling, full curve, poor fit]. In addition, the AC50 under setting [1] is 6.51 µM [falling, single point].
In the case of `Cc1cc(-c2[nH]nc3c2C(c2ccc(Cl)cc2)C(C#N)=C(N)O3)c(C)s1` (configuration not stated), the cell number change is -49.7%. Besides, under setting [2], the AC50 is 29.1 µM [falling, single point]. Further, under setting [1], the AC50 was 18.4 µM [falling, single point].
As for `CS(=O)(=O)c1ccc2nc(NC(=O)C3CC(=O)N(c4ccccc4)C3)sc2c1` (configuration not stated), the cell number change was -2.08%.
Consider `CCOC(=O)N1CCN(C(=O)CSCC(=O)N=c2sc3ccccc3n2C)CC1`, for which the cell number change was determined as 67.1%. For the same compound, the AC50 under setting [2] is 25.9 µM [rising, single point]. For the same compound, the AC50 under setting [1] is 0.731 µM [rising, full curve].
With `CCOc1ccc(C(=O)Nc2nncs2)cc1OCC`, the AC50 under setting [2] was 5.8 µM [falling, single point].
For `Cc1cc(C)nc(N(C#N)Cc2ccccc2C)n1`, the cell number change is 24.9%. Besides, the AC50 under setting [1] is 32.6 µM [rising, single point].
With `Cc1c(C(=O)OCC(=O)c2ccc3c(c2)OCCO3)oc2ccccc12`, the cell number change is -12.1%.
